Measured values published in PubChem BioAssay AID1745850 (National Center for Advancing Translational Sciences (NCATS), 2022).
Out of some 2,100 compounds screened, about 260 (12%) were called active. The shares of active, inactive and inconclusive entries below differ from those in the screen. Calls come from the whole dose curve; as a rule, active = well fitted cell-killing curve with a large enough effect; inconclusive = small, poorly fitted or top-dose-only effect, or effect the other way; inactive = flat fitted curve, though single readings scatter. Potencies beside an inconclusive call are fits to weak or partial responses and may not hold up.
Potency is the fitted concentration of half-maximal effect.

Assay: Viability Counterscreen for Confirmatory qHTS for Inhibitors of ATXN expression; note: nearly all actives have a fitted effect of over 50% in size
Conditions: HEK-293 ATXN2-luc cells viability, CellTiter-Fluor, 24 h
From the text: PI: Daniel Scoles Ph.D. University of Utah School of Medicine, Salt Lake City, Utah MLPCN Grant: NS073009 Spinocerebellar ataxia type 2 (SCA2) is a multisystem neurodegenerative disease caused by a dominantly acting mutation leading to expansion of a polyQ domain in the ataxin-2 protein (ATXN2). SCA2 patients develop progressive ataxia and later lose function in other neuronal systems. Prominent parkinsonian signs develop in some patients. Like many neurodegenerative disorders, no symptomatic or disease-modifying treatments are known. The primary objective of the proposed research is to identify compounds inhibiting ATXN2 expression and to test them for efficacy in SCA2 mouse models. We have developed a cell-based assay paired with an in vivo mouse model using identical luciferase expression constructs. This approach takes advantage of an ATXN2-luciferase transgene, with the luciferase gene flanked by the upstream and downstream portions of the ATXN2 gene. Here we describe a 5-7 dose quantitative high thoroughput screen (qHTS) for compounds lowering ATXN2 expression. We screened the NIH Molecular Libraries Small Molecule Repository (MLSMR) and NCGC's mechanistically annotated (MIPE) and drug repurposing (NPC) collections of compounds for lowering expression of an ATXN2-luciferase reporter in HEK-293 cells. The assay is a multiplexed cell viability assay to ensure target reduction in the absence of cytotoxicity. Secondary qHTS assays included a CMV-luciferase reporter expressed in HEK-293 cells as well as a biochemical assay using recombinant luciferase to detect inhibitors of the reporter enzyme. Compounds that inhibit ATXN2 expression but is not cytotoxic were selected for confirmatory and secondary screens.
PROTOCOL TABLE (as described by Inglese J, Shamu CE and Guy RK. 2007) SEQUENCE No. (e.g., 1, 2, 3, etc.); […] (e.g., Cells, Incubation, Reagent, etc.); VALUE; DESCRIPTION. 1; Cells; 4 uL; white, solid bottom, 1536-well Greiner assay plate. 2; Incubation; 2 hr; 37 degree C in 5% humidified CO2. 3; Compounds; 23 nL; Kalypsis pintool (Wako USA) equipped with a 1536-well pin head. 4; Incubation; 24 hr; 37 degree C in 5% humidified CO2. 5; Reagent; 1 uL; Gly-Phe-7-Amino-4-trifluoromethylcoumarin. 6; Incubation; 30 min; 37 degree C in 5% humidified CO2. 7; Detection; Fluorescence; ViewLux plate reader (PerkinElmer). 8; Reagent; 3 uL; SteadyGlo luciferase solution (Promega). 9; Incubation; 5 min; room temperature. 10; Detection; Luminescence; ViewLux plate reader (PerkinElmer). NOTES (numbers refer to Sequence numbers above) 1. S2 cells expressing ATXN2-luciferase reporter were suspended in phenol-red free DMEM and dispensed in assay plates using a Multidrop Combi dispenser (Thermo Fisher Scientific). Wells containing medium only were plated on each plate, and values were used to normalize (100% inhibition) in the luciferase and CellTiter-Fluor assays. 2. Assay plates were incubated. Evaporation was prevented by covering assay plates with metal lids containing holes to allow gas diffusion. 3. Compounds were added in a dose response manner with the final concentrations of 57, 11.4, 2.28, 0.46, 0.091, 0.018, 0.0037 uM. Vehicle-only plates, with DMSO being pin-transferred to columns 5-48, were inserted uniformly at the beginning and the end of each library to monitor and record any shifts in assay performance. 5. 125 uM Gly-Phe-7-Amino-4-trifluoromethylcoumarin (MP Biomedicals) working concentration was used at a final concentration of 25 uM. 7. To assess cell viability; the assay plates were read using the ViewLux high-throughput CCD imager (PerkinElmer), wherein single end-point fluorescence measurement was acquired (excitation 405/10; emission 540/25 nm). 8. Detection reagent SteadyGlo Luciferase (Promega) was added to the assay plate. 10. Luminescence is then measured on the ViewLux imager equipped with a clear emission filter using a 2 sec exposure. […]
In the case of Cc1nc2cc(NC(=O)CSc3nc4c(C)cccc4cc3C#N)ccc2s1, the Potency is reported as inconclusive: 25.1 µM [cytotoxic, partial curve, poor fit].
In the case of CSCC[C@H](NC(=O)OC(C)(C)C)C(=O)N/N=C/c1cccc2cccnc12, the Potency is reported as “inactive”.
With COc1ccc(N2CCN(C(=O)c3cc4c(C)nc5ccccc5c4o3)CC2)cc1 the Potency was inconclusive: 25.1 µM [cytotoxic, single point].
With CN(C)CCCNC(=O)/C=C/c1ccc(OCc2c(F)cccc2Cl)cc1 the Potency was inconclusive: 39.8 µM [cytotoxic, single point].
With Cc1ccn2c(Nc3ccccc3)c(-c3ccccn3)nc2c1 the Potency was inconclusive: 1.78 µM [cytotoxic, partial curve].
In the case of NC(Cc1ccc(C(F)(F)F)cc1)c1csc(Nc2ccc(C(=O)c3ccccc3)cc2)n1 (stereo unspecified), the Potency is reported as inconclusive: 39.8 µM [cytotoxic, single point].
For Cc1cnc(NC(=O)CCCc2nc3ccccc3s2)s1, the Potency was inconclusive: 22.4 µM [cytotoxic, partial curve].
With COc1ccc(OCc2cccc(C(=O)Nn3cc([N+](=O)[O-])cn3)c2)cc1 the Potency was “inactive”.
With Cc1csc2ncnc(NC3CCN(Cc4ccccc4)CC3)c12 the Potency was “inactive”.
For Cc1c([N+](=O)[O-])cc(C(=O)Nc2ccc(Cc3ccncc3)cc2)cc1[N+](=O)[O-], the Potency was inconclusive: 39.8 µM [cytotoxic, single point].
In the case of Cc1cc(NC(=O)/C=C/C(=O)N(c2ccccc2C)C(C(=O)NC2CCCC2)c2ccc(F)cc2)no1 (stereo unspecified), the Potency is reported as inconclusive: 3.98 µM [cytotoxic, single point].
In the case of CCN(CC)S(=O)(=O)c1ccc(N/N=C/c2ccc(O)cc2O)nc1, the Potency is reported as inconclusive: 3.55 µM [cytotoxic, full curve].
With Cc1ccc(OCCCC(=O)NNC(=O)c2ccccn2)cc1 the Potency was inconclusive: 39.8 µM [cytotoxic, partial curve, poor fit].
With O=[N+]([O-])c1cc(O)c2ncccc2c1 the Potency was inconclusive: 3.16 µM [cytotoxic, partial curve, poor fit].
In the case of COc1ccc(-c2cnc3c(NC=O)cc(-c4ccccc4OC)cn23)cc1OC, the Potency is reported as inconclusive: 0.891 µM [cytotoxic, partial curve, poor fit].
With ClC(Cl)(Cl)c1nc2ccccc2n2nncc12 the Potency was inconclusive: 3.16 µM [cytotoxic, partial curve].
In the case of COc1ccc(CC(N)c2csc(NC(=O)c3cc(C(C)(C)C)nn3Cc3ccccc3)n2)cc1 (stereo unspecified), the Potency is reported as inconclusive: 6.31 µM [cytotoxic, single point].
With CCOC(=O)c1c(C)nn(-c2ccc(NC(=O)/C=C/C(=O)O)cc2)c1C the Potency was “inactive”.
With C(=N\Nc1ccc2nncn2n1)/c1ccccn1 the Potency was inconclusive: 31.6 µM [cytotoxic, single point].
For NC(Cc1ccc(Cl)cc1)c1csc(Nc2nccc(C(F)(F)F)n2)n1 (stereo unspecified), the Potency was active: 28.2 µM.
With OC(c1cc(F)cc(Cl)c1)c1ncc(-c2cccc(C(F)(F)F)c2)[nH]1 (stereo unspecified) the Potency was inconclusive: 6.31 µM [cytotoxic, single point].
For O=C(CCCOc1ccc(Cl)cc1Cl)N/N=C/c1ccccc1O, the Potency was inconclusive: 7.94 µM [cytotoxic, full curve].
In the case of OC[C@@H]1CN(Cc2ccc(-c3ccccc3)cc2)C[C@H](n2cnc3c(NC4CCC4)ncnc32)O1, the Potency is reported as inconclusive: 28.2 µM [cytotoxic, single point].
In the case of O=C1c2ccccc2NC(c2ccc(-c3cccc([N+](=O)[O-])c3)o2)N1O (stereo unspecified), the Potency is reported as inconclusive: 22.4 µM [cytotoxic, partial curve, poor fit].
With O=C(c1ccco1)N(CCCN1CCOCC1)c1nc(-c2ccc(Cl)cc2)cs1 the Potency was “inactive”.
With O=c1cc(-c2c(F)c(F)c(F)c(F)c2F)oc2ccccc12 the Potency was inconclusive: 3.98 µM [cytotoxic, single point].
For NNc1ccc(Cc2ccc(Cl)cc2Cl)nn1, the Potency was inconclusive: 25.1 µM [cytotoxic, partial curve].
With O=C(CNC(=O)c1ccc2c(c1)OCO2)N/N=C/c1cc(Br)ccc1O the Potency was inconclusive: 3.55 µM [cytotoxic, single point].
In the case of CC[n+]1c(C=C2C=C(C)OC(C)=C2)sc2ccccc21, the Potency is reported as active: 11.2 µM.
With Cc1[nH]n(-c2ccccc2)c(=O)c1/C=N/NC(=O)c1ccccc1F the Potency was inconclusive: 14.1 µM [cytotoxic, partial curve].
For COc1ccc(O)c(/C=N/NC(=O)c2ccc(N3CCCC3=O)cc2)c1, the Potency was inconclusive: 17.8 µM [cytotoxic, partial curve].
For COc1ccc(-c2noc(CCCC(=O)NC3CCCC3)n2)cc1, the Potency was inconclusive: 14.1 µM [cytotoxic, partial curve, poor fit].
With O=C(c1ccc(Cl)s1)N1CCN(c2nc3ccccc3s2)CC1 the Potency was inconclusive: 3.98 µM [cytotoxic, partial curve, poor fit].
In the case of O=[N+]([O-])c1ccc(NC(c2ccccc2)c2ccc3cccnc3c2O)cc1 (stereo unspecified), the Potency is reported as active: 7.94 µM.
With O=C1c2cccc3c([N+](=O)[O-])ccc(c23)C(=O)N1c1ccc(Cl)cn1 the Potency was “inactive”.
For Clc1cccc(-c2nc(NCc3cccnc3)c3ccccc3n2)c1, the Potency was inconclusive: 25.1 µM [cytotoxic, single point].
In the case of CCOC(=O)C(C(C)=O)c1c(Br)c(O)c(O)c2c(C(=O)c3ccc(C)cc3)coc12 (stereo unspecified), the Potency is reported as active: 15.8 µM.
In the case of O=C(NCc1ccccc1)C1=C[C@@H](c2csc3ccccc23)C[C@@H](OCCCCO)O1, the Potency is reported as inconclusive: 8.91 µM [cytotoxic, full curve, poor fit].
For CC1(C)Cc2c(c(-c3ccco3)nc3sc4c(NCCN5CCOCC5)ncnc4c23)CO1, the Potency was inconclusive: 35.5 µM [cytotoxic, single point].
With CCOc1ccc(CN(C)c2nc(-c3cccnc3)nc3ccccc23)cc1OC the Potency was inconclusive: 25.1 µM [cytotoxic, single point].
For COc1cccc(N2CCN(c3nc(-c4ccccc4C)cc(=O)[nH]3)CC2)c1, the Potency was “inactive”.
